{"source": "PubChem BioAssay AID1224828 (NIAID, 2016)", "screen": "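Knock-downs that increase or decrease LPS-induced p65 nuclear translocation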 (primary screen)", "cell system": "mouse RAW264.7 G9 macrophage reporter cells (GFP-p65, Tnf promoter-mCherry)", "reagent": "siRNA pool against mouse genes, 100 nM", "timing": "2 days siRNA transfection, then 40 min LPS before fixation", "conditions": "LPS (Salmonella minnesota R595) at 10 ng/ml", "measurement": "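Microscopy ratio of nuclear to perinuclear-ring GFP-p65 signal, scaled to the plate median; gene score is the average of two replicate robust z-scores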", "scale": "p65 translocation robust z-score: higher = more nuclear NF-kappaB p65 after LPS than the plate median; nuclear/cytoplasmic p65 ratio: higher = more nuclear NF-kappaB p65", "rule for the call": "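Called active when z exceeds 3.3 or falls under -1.56 (median of Tlr4 controls), giving activity score of at least 50; no calls for control wells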", "meaning of the calls": "active = hit (p65 shift raised or lowered); inactive = no clear change", "note": "The deposit covers about 17,000 reagents; below is a random part of them. 762 of them (4.5%) were called active. 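Active calls include both raised and lowered p65 entry, mostly lowered; wells with fewer than 50 cells lack a z-score.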 Raw values are not corrected between plates."}
{"target": "H4c9 (H4 clustered histone 9)", "p65 translocation robust z-score": 1.16, "nuclear/cytoplasmic p65 ratio, rep 1": 1.7, "nuclear/cytoplasmic p65 ratio, rep 2": 1.6, "low cell count flag": "enough cells to score", "call": "inactive"}
{"target": "Syk (spleen tyrosine kinase)", "p65 translocation robust z-score": -1.96, "nuclear/cytoplasmic p65 ratio, rep 1": 1.45, "nuclear/cytoplasmic p65 ratio, rep 2": 1.14, "low cell count flag": "enough cells to score", "call": "active"}
{"target": "Hbb-b2 (hemoglobin, beta adult minor chain)", "p65 translocation robust z-score": 1.36, "nuclear/cytoplasmic p65 ratio, rep 1": 1.92, "nuclear/cytoplasmic p65 ratio, rep 2": 1.68, "low cell count flag": "enough cells to score", "call": "inactive"}
{"target": "Setd3 (SET domain containing 3)", "p65 translocation robust z-score": -1.3, "nuclear/cytoplasmic p65 ratio, rep 1": 1.37, "nuclear/cytoplasmic p65 ratio, rep 2": 1.58, "low cell count flag": "enough cells to score", "call": "inactive"}
{"target": "Timp3 (tissue inhibitor of metalloproteinase 3)", "p65 translocation robust z-score": 0.11, "nuclear/cytoplasmic p65 ratio, rep 1": 1.48, "nuclear/cytoplasmic p65 ratio, rep 2": 1.59, "low cell count flag": "enough cells to score", "call": "inactive"}
{"target": "Pick1 (protein interacting with C kinase 1)", "nuclear/cytoplasmic p65 ratio, rep 1": 1.63, "nuclear/cytoplasmic p65 ratio, rep 2": 1.33, "low cell count flag": "fewer than 50 cells per well; well left out of scoring", "call": "inactive"}
{"target": "Mrgpra8 (MAS-related GPR, member A8)", "p65 translocation robust z-score": 0.9, "nuclear/cytoplasmic p65 ratio, rep 1": 1.93, "nuclear/cytoplasmic p65 ratio, rep 2": 1.73, "low cell count flag": "enough cells to score", "call": "inactive"}
{"target": "Polr3b (polymerase (RNA) III (DNA directed) polypeptide B)", "p65 translocation robust z-score": 0.1, "nuclear/cytoplasmic p65 ratio, rep 1": 1.36, "nuclear/cytoplasmic p65 ratio, rep 2": 1.23, "low cell count flag": "enough cells to score", "call": "inactive"}
{"target": "Braf (B-Raf proto-oncogene, serine/threonine kinase)", "p65 translocation robust z-score": -2.14, "nuclear/cytoplasmic p65 ratio, rep 1": 1.43, "nuclear/cytoplasmic p65 ratio, rep 2": 1.05, "low cell count flag": "enough cells to score", "call": "active"}

A portion from the list above, for reference:
{"target": "Syk (spleen tyrosine kinase)", "p65 translocation robust z-score": -1.96, "nuclear/cytoplasmic p65 ratio, rep 1": 1.45, "nuclear/cytoplasmic p65 ratio, rep 2": 1.14, "low cell count flag": "enough cells to score", "call": "active"}
{"target": "Hbb-b2 (hemoglobin, beta adult minor chain)", "p65 translocation robust z-score": 1.36, "nuclear/cytoplasmic p65 ratio, rep 1": 1.92, "nuclear/cytoplasmic p65 ratio, rep 2": 1.68, "low cell count flag": "enough cells to score", "call": "inactive"}

More entries follow.
{"target": "Cacng8 (calcium channel, voltage-dependent, gamma subunit 8)", "p65 translocation robust z-score": 0.09, "nuclear/cytoplasmic p65 ratio, rep 1": 1.65, "nuclear/cytoplasmic p65 ratio, rep 2": 1.76, "low cell count flag": "enough cells to score", "call": "inactive"}
{"target": "Or2v1 (olfactory receptor family 2 subfamily V member 1)", "nuclear/cytoplasmic p65 ratio, rep 1": 1.5, "nuclear/cytoplasmic p65 ratio, rep 2": 0.855, "low cell count flag": "fewer than 50 cells per well; well left out of scoring", "call": "inactive"}
{"target": "Zc3h3 (zinc finger CCCH type containing 3)", "p65 translocation robust z-score": -0.54, "nuclear/cytoplasmic p65 ratio, rep 1": 1.36, "nuclear/cytoplasmic p65 ratio, rep 2": 1.17, "low cell count flag": "enough cells to score", "call": "inactive"}
{"target": "Plec (plectin)", "p65 translocation robust z-score": -0.05, "nuclear/cytoplasmic p65 ratio, rep 1": 1.5, "nuclear/cytoplasmic p65 ratio, rep 2": 1.39, "low cell count flag": "enough cells to score", "call": "inactive"}
{"target": "Pafah1b1", "p65 translocation robust z-score": -0.21, "nuclear/cytoplasmic p65 ratio, rep 1": 1.61, "nuclear/cytoplasmic p65 ratio, rep 2": 1.37, "low cell count flag": "enough cells to score", "call": "inactive"}
